Reference: patent US20180141989A1 (BOARD OF REGENTS OF THE UNIVERSITY OF OKLAHOMA, published 2018)

Tests used:
[1] = molecular target: MBP-RAMP1 ECD-(GS)5-CLR ECD-H6 fusion protein (human); experiment: FP (anisotropy) competition: displaces FITC-Ahx-AM(37-52)NH2[S45W,Q50W] probe (7 nM) from MBP-RAMP1 ECD-(GS)5-CLR ECD-H6 (15 nM) [A-C) panel B]
[2] = molecular target: MBP-RAMP1 ECD-(GS)5-CLR ECD-H6 fusion protein (human); experiment: AlphaLISA competition vs Biotin-CGRP probe
[3] = molecular target: MBP-RAMP1 ECD-(GS)5-CLR ECD-H6 fusion protein (human); experiment: FP (anisotropy) competition: displaces FITC-Ahx-AM(37-52)NH2[S45W,Q50W] probe (7 nM) from MBP-RAMP1 ECD-(GS)5-CLR ECD-H6 (15 nM) [A-C) panel C]
[4] = molecular target: MBP-RAMP1 ECD-(GS)5-CLR ECD-H6 fusion protein (human); experiment: FP (anisotropy) competition: displaces FITC-Ahx-AM(37-52)NH2[S45W,Q50W] probe (7 nM) from MBP-RAMP1 ECD-(GS)5-CLR ECD-H6 (15 nM) [D-E) panel D]
[5] = molecular target: MBP-RAMP1 ECD-(GS)5-CLR ECD-H6 fusion protein (human); experiment: FP (anisotropy) competition: displaces FITC-Ahx-AM(37-52)NH2[S45W,Q50W] probe (7 nM) from MBP-RAMP1 ECD-(GS)5-CLR ECD-H6 (15 nM) [D-E) panel E]
[6] = molecular target: MBP-RAMP1 ECD-(GS)5-CLR ECD-H6 fusion protein (human); experiment: FP (anisotropy) competition: displaces FITC-Ahx-AM(37-52)NH2[S45W,Q50W] probe (7 nM) from MBP-RAMP1 ECD-(GS)5-CLR ECD-H6 (15 nM) [F-H) panel F]
[7] = molecular target: MBP-RAMP1 ECD-(GS)5-CLR ECD-H6 fusion protein (human); experiment: FP (anisotropy) competition: displaces FITC-Ahx-AM(37-52)NH2[S45W,Q50W] probe (7 nM) from MBP-RAMP1 ECD-(GS)5-CLR ECD-H6 (15 nM) [F-H) panel G]
[8] = molecular target: MBP-RAMP1 ECD-(GS)5-CLR ECD-H6 fusion protein (human); experiment: FP (anisotropy) competition: displaces FITC-Ahx-AM(37-52)NH2[S45W,Q50W] probe (7 nM) from MBP-RAMP1 ECD-(GS)5-CLR ECD-H6 (15 nM) [F-H) panel H]
[9] = molecular target: MBP-RAMP1 ECD-(GS)5-CLR ECD-H6 fusion protein (human); experiment: FP (anisotropy) competition: displaces FITC-Ahx-AM(37-52)NH2[S45W,Q50W] probe (7 nM) from MBP-RAMP1 ECD-(GS)5-CLR ECD-H6 (15 nM) [I-J) upper graph]
[10] = molecular target: MBP-RAMP1 ECD-(GS)5-CLR ECD-H6 fusion protein (human); experiment: FP (anisotropy) competition: displaces FITC-Ahx-AM(37-52)NH2[S45W,Q50W] probe (7 nM) from MBP-RAMP1 ECD-(GS)5-CLR ECD-H6 (15 nM) [I-J) lower graph]
[11] = molecular target: MBP-RAMP1 ECD-(GS)5-CLR ECD-H6 fusion protein (human); experiment: FP competition

In the case of DKDNVAPRSKISPFGY (C-terminal amide) [AM(37-52)NH2 [Q50F]], the binding [1] is reported as “binds”.

With DKDNVAPRSKISPWGY (C-terminal amide) [AM(37-52)NH2 [Q50W]] the binding [2] was “binds” and the binding [1] was “binds”.

With DKKNVAPRSKISPQGY (C-terminal amide) [AM(37-52)NH2 [D39K]] the binding [3] was “binds”.

With DKDNVAPRSLISPWGY (C-terminal amide) [AM(37-52)NH2 [K46L, Q50W]] the binding [3] was “binds”.

With DKDNVAPRSLISPWGF (C-terminal amide) [AM(37-52)NH2 [K46L, Q50W, Y52F]] the binding [3] was “binds”.

For DKFNVAPRSLISPWGY (C-terminal amide) [AM(37-52)NH2 [D39F, K46L, Q50W]], the binding [4] was “binds”.

For DKFNVAPRSLISPWGF (C-terminal amide) [AM(37-52)NH2 [D39F, K46L, Q50W, Y52F]], the binding [4] was “binds”.

DKDNVAPRWLISPWGF (C-terminal amide) [AM(37-52)NH2 [S45W, K46L, Q50W, Y52F]] was tested, and the binding [4] was “binds”.

In the case of DKDNVAPRWMISPWGF (C-terminal amide) [AM(37-52)NH2 [S45W, K46M, Q50W, Y52F]], the binding [5] is reported as “binds”.

For DKDNVAPRWWISPWGF (C-terminal amide) [AM(37-52)NH2 [S45W, K46W, Q50W, Y52F]], the binding [5] was “binds”.

For DKDNVAPRTWISPWGY (C-terminal amide) [AM(37-52)NH2[S45T, K46W, Q50W]], the binding [6] was “binds”.

In the case of DKDNVAPRTLISPWGY (C-terminal amide) [AM(37-52)NH2[S45T, K46L, Q50W]], the binding [6] is reported as “binds”.

In the case of DKDNVAPRWLIGPWGF (C-terminal amide) [AM(37-52)NH2 [S45W, K46L, S48G, Q50W, Y52F]], the binding [6] is reported as “binds”.

In the case of DKDNVAPRWLMSPWGF (C-terminal amide) [AM(37-52)NH2 [S45W, K46L, I47M, Q50W, Y52F]], the binding [7] is reported as “binds”.

With DKDNVAPRRWISPWGY (C-terminal amide) [AM(37-52) S45R/K46W/Q50W] the binding [8] was “binds”.

DKDNVAPRRLISPWGY (C-terminal amide) [AM(37-52) S45R/K46L/Q50W] was tested, and the binding [8] was “binds”.

With DKDNVAPRRWIGPWGY (C-terminal amide) [AM(37-52) S45R/K46W/S48G/Q50W] the binding [9] was “binds”.

For DKDNVAPRRLIGPWGY (C-terminal amide) [AM(37-52) S45R/K46L/S48G/Q50W], the binding [9] was “binds”.

With DKDNVAPRRWLGPWGY (C-terminal amide) [AM(37-52) S45R/K46W/I47L/S48G/Q50W] the binding [9] was “binds”.

For DKWNVAPRSKISPWGY (C-terminal amide) [AM(37-52) D39W/Q50W], the binding [10] was “binds”.

With VKDNVAPRWLISPWGF (C-terminal amide) [AM(37-52) D37V/S45W/K46L/Q50W/Y52F] the binding [10] was “binds”.

In the case of DKDNVAPRWKISPWGY (C-terminal amide) [AM(37-52)NH2 [S45W, Q50W]], the binding [11] is reported as “binds”, the binding [2] is reported as “binds” and the binding [1] is reported as “binds”.

FVPTDVGPWAF (C-terminal amide) [CGRP(27-37)NH2 [N31D, S34P, K35W]] was tested, and the binding [1] was “binds”.

In the case of FVPTDVGPFSF (C-terminal amide) [CGRP(27-37)NH2 [N31D, S34P, K35F, A36S]], the binding [1] is reported as “binds”.

In the case of FVPTDVGPWSF (C-terminal amide) [CGRP(27-37)NH2 [N31D, S34P, K35W, A36S]], the binding [3] is reported as “binds”.

With FVPTDVGPWSY (C-terminal amide) [CGRP(27-37)NH2 [N31D, S34P, K35W, A36S, F37Y]] the binding [3] was “binds”.

For FVPTDTGPWGF (C-terminal amide) [CGRP(27-37)NH2 [N31D, V32T, S34P, K35W, A36G]], the binding [4] was “binds”.

FVPTDTGPWGY (C-terminal amide) [CGRP(27-37)NH2 [N31D, V32T, S34P, K35W, A36G, F37Y]] was tested, and the binding [4] was “binds”.

In the case of FVPTDTGPWSF (C-terminal amide) [CGRP(27-37)NH2 [N31D, V32T, S34P, K35W, A36S]], the binding [11] is reported as “binds” and the binding [5] is reported as “binds”.

No constants are given. Whether binding was seen depends on the method and setting. A result given as binding can be weak or reduced; the word gives no strength.
